Results as given in US5726024.
Negatives hold for the conditions tested.

Chains of the proteins cited; added tags and fusions are not shown.
UniProt P02340, whole entry: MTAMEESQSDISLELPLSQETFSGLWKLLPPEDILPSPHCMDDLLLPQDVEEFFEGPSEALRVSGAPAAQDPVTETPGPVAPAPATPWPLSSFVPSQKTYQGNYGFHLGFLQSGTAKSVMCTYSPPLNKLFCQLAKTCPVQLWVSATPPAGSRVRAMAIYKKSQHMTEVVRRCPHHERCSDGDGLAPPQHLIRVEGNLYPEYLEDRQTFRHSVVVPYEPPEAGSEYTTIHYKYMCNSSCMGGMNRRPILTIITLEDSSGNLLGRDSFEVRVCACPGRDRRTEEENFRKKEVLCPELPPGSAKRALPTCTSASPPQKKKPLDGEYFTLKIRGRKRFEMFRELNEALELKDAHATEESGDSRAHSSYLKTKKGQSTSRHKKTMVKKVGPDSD

Molecular target: p53 (wild type, major form) (Mus musculus) (UniProt P02340)
Test: EMSA
Conditions: no apparent binding without activation; protein translated in vitro; protein details: rabbit reticulocyte lysate, plasmid pBSp53; label: 32P end label

## AGGCATGCCTAGGCATGCCT (double strand) [p53 binding sequence (two 10-mer half sites)]
  binding result: no binding
